Measurements as given in the supplement of paper PMC10849652.
This is one part of the list. Residues, ends and D or L forms follow the SMILES beside them. *: point of attachment. Cbz = O=C(OCc1ccccc1)*

The chains behind the UniProt entries cited, without tags or fusion partners. Where a name states a change or a piece, a line headed by the entry shows the natural chain unless it says otherwise.
UniProt Q9Y2S7: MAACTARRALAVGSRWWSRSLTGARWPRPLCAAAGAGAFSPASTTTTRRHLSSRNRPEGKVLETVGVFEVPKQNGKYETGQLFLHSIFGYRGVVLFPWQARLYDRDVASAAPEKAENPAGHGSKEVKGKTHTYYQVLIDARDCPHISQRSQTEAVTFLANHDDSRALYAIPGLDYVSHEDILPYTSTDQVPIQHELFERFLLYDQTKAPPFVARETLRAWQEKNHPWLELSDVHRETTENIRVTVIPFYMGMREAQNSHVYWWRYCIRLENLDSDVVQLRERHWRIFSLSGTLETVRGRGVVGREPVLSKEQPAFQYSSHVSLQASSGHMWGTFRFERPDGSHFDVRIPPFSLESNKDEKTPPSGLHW
UniProt P35813: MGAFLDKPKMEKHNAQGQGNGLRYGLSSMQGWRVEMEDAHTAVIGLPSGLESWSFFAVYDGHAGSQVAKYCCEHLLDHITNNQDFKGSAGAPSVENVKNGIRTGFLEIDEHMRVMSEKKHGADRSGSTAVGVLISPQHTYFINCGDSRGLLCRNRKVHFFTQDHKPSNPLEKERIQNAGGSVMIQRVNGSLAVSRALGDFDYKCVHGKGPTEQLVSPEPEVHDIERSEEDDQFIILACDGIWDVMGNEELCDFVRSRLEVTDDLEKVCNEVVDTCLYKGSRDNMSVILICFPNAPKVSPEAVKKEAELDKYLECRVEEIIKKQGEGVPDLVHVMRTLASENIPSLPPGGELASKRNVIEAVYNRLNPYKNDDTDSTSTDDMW
UniProt P49005: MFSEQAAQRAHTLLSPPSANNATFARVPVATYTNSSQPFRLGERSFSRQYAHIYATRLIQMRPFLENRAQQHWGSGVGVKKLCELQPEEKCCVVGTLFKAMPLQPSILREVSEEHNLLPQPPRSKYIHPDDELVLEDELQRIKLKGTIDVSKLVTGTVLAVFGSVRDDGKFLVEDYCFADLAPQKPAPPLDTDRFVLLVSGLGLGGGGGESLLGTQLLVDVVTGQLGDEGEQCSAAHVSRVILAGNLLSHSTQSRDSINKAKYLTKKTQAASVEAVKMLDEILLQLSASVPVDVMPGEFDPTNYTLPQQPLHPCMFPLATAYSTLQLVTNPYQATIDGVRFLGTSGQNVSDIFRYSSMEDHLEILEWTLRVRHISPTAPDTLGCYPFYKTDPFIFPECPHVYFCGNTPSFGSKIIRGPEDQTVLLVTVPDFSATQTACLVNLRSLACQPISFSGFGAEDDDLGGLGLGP
UniProt P0DPB6, whole entry, looked up: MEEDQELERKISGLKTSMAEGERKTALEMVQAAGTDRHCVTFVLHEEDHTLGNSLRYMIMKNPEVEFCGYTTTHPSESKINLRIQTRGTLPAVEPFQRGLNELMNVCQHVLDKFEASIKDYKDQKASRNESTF
UniProt P62937, whole entry, looked up: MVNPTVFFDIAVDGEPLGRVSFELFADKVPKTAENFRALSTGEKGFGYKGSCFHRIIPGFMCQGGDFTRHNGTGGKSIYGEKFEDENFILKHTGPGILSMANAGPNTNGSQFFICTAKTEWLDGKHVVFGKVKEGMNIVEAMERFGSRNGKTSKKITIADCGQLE
UniProt P00491: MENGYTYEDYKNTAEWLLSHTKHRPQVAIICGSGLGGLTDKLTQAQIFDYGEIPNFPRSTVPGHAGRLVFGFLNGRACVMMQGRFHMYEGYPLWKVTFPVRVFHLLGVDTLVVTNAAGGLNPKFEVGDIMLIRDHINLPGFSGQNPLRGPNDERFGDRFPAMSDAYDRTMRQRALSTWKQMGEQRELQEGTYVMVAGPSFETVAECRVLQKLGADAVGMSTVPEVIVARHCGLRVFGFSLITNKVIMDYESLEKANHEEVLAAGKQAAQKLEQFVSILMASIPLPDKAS
UniProt Q8WZA1: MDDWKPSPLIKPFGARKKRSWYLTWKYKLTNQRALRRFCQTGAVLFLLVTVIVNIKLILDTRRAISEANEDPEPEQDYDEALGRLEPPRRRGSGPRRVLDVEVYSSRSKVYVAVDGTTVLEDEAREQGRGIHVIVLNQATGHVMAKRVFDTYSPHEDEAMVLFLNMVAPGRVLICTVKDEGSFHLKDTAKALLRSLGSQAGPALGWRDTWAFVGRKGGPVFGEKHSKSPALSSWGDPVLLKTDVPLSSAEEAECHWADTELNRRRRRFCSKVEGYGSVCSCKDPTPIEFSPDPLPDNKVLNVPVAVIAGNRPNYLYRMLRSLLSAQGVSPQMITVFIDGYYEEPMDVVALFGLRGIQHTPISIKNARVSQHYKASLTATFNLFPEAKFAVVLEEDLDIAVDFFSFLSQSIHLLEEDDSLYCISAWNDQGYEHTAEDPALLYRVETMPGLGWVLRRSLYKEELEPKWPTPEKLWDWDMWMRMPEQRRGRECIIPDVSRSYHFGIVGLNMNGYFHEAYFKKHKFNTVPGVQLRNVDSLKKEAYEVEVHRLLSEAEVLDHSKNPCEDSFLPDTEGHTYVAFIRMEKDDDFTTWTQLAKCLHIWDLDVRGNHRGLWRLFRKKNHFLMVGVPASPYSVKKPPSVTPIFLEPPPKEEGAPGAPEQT
UniProt Q9H1D9: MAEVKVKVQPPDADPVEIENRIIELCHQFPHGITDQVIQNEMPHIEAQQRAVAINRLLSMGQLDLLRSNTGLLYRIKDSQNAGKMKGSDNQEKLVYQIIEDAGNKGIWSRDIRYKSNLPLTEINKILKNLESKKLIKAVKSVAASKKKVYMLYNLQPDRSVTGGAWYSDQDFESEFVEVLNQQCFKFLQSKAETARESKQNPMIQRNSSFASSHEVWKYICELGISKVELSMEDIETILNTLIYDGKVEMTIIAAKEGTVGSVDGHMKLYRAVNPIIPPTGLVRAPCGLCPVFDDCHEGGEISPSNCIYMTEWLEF
UniProt Q9HAB8: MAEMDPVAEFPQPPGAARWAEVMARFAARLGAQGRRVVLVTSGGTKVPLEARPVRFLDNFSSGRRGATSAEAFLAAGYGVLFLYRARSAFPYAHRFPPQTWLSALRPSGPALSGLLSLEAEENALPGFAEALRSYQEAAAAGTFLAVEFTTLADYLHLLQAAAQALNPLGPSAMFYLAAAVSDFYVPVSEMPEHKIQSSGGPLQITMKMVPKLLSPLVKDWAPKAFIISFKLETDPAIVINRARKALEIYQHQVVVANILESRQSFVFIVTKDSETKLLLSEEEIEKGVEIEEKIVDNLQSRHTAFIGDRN
UniProt A5A3E0, whole entry, looked up: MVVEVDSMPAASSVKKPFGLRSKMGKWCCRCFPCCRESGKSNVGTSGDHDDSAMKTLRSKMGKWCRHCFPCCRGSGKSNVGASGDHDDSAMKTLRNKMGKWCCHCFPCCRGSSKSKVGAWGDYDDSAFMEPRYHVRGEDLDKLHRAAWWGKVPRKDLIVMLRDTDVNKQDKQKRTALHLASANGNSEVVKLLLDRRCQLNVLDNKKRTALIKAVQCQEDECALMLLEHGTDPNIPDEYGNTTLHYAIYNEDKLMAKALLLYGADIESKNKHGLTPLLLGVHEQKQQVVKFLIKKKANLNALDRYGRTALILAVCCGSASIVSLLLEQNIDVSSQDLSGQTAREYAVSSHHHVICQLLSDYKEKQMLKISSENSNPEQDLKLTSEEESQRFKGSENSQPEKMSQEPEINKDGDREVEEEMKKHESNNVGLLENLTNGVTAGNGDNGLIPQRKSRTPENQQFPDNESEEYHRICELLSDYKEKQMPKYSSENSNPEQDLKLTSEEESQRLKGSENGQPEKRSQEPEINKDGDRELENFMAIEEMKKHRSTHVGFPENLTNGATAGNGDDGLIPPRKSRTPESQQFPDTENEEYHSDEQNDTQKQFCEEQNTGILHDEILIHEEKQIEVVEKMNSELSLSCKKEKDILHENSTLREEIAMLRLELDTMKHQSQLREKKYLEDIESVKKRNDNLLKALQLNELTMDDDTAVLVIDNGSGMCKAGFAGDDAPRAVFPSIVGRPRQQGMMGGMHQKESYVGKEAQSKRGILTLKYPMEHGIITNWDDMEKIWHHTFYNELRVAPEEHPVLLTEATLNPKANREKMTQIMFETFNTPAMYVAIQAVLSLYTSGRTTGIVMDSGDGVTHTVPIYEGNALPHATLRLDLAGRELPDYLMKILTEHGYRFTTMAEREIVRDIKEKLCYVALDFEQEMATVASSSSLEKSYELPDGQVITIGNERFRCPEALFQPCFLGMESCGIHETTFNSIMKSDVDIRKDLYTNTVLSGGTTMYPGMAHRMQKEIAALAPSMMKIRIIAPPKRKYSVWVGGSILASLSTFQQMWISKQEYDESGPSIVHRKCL
UniProt Q9NRX1: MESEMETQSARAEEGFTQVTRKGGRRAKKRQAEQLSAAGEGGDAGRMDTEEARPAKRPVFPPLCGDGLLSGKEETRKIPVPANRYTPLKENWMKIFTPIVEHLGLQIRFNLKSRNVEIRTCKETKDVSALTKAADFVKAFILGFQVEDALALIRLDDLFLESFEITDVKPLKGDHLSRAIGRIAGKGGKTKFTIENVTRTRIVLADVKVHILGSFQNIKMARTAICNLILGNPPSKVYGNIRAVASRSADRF
UniProt Q14651: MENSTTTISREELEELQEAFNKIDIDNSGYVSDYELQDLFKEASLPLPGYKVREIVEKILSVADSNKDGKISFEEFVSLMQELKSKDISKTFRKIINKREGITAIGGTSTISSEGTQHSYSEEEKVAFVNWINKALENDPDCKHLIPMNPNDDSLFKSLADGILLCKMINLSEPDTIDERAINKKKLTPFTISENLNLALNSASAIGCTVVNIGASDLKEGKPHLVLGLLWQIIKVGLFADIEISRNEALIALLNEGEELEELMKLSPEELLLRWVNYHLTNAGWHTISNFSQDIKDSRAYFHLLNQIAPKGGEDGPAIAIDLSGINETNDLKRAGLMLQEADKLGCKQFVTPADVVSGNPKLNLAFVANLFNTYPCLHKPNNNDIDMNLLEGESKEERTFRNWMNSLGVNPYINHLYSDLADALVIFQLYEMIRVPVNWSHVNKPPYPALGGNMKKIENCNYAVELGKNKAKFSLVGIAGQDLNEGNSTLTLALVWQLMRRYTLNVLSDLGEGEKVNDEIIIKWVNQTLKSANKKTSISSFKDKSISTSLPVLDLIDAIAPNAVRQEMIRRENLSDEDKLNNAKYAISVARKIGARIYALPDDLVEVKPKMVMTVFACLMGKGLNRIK
UniProt O75688: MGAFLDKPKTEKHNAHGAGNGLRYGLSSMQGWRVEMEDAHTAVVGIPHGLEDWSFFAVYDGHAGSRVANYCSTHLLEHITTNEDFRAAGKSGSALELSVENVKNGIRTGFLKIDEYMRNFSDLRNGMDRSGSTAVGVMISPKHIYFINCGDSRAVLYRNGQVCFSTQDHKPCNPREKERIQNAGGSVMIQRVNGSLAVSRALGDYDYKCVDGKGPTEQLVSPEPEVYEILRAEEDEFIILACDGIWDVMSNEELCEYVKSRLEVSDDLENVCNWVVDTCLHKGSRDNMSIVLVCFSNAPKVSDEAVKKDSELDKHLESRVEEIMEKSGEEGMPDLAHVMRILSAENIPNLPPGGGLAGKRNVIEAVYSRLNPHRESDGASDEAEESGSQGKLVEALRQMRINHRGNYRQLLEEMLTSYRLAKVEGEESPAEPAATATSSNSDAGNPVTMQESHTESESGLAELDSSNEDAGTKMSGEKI
UniProt Q15063: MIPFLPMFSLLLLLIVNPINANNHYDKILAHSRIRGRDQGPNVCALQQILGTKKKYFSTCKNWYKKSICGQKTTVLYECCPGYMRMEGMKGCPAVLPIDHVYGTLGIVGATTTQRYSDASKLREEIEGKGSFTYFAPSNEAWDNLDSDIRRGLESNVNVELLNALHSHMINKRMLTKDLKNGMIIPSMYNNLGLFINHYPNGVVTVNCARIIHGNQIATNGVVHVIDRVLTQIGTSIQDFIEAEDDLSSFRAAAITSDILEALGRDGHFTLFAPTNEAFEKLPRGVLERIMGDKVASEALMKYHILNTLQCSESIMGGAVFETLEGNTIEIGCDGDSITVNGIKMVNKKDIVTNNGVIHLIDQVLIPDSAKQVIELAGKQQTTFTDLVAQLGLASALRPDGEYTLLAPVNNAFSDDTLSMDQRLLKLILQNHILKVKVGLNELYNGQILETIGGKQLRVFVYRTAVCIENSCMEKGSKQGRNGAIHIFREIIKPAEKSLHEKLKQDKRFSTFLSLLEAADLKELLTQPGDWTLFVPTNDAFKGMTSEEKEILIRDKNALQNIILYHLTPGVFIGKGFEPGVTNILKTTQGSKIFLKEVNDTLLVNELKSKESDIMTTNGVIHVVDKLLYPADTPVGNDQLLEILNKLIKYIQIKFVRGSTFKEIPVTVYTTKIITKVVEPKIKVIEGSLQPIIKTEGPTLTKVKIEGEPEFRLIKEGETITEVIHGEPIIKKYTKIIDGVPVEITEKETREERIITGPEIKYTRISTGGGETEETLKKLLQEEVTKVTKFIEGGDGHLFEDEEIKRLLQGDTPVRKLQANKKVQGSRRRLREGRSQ
UniProt O95707: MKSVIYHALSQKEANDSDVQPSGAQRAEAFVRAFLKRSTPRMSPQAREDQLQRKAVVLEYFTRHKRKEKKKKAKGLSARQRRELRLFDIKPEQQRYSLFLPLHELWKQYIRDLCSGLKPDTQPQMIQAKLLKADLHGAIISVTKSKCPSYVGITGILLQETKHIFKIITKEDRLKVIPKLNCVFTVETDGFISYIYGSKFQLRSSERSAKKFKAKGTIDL

How the values were obtained:
Experiment in all cases: log2 fold change, soluble protein after heating vs DMSO (PISA); higher = thermal stabilisation; K562 cells, 10 uM, 30 min; active = over 0.2 and 3.5 SD of the protein, either way, in both replicates (recomputed)
erlotinib = compound: C#Cc1cccc(Nc2ncnc3cc(OCCOC)c(OCCOC)cc23)c1 [erlotinib]
Outline: (§1)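 K562 cells at 2×10^6 cells/mL were treated with 10 μM compound for 30 min. Aliquots were heated for 3 min across 48°C-58°C, pooled, and extracted in PBS with 0.5% NP-40 at 4°C; soluble protein was the supernatant after 21,000xg for 90 min. Soluble protein was quantified by TMTpro 16plex LC-MS/MS with channel sums equalised, and reported as log2 fold change in thermal stability against DMSO controls, with values from duplicates.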

[1] = compound: C/C(=N\NC(=O)C1=CC(=CC=C1)S(=O)(=O)N2CCOCC2)/C3=C(C=CC(=C3)Cl)O
Outline: as §1

[2] = compound: C1=CC(=C(C=C1Cl)C2=NC3=NC=CN=C3C(=N2)NC4=CC=NC=C4)F
Outline: as §1

[3] = compound: C1=CC(=CC=C1C2=NC3=C(N2)C=C(C=C3)C(=O)N)OC4=CC=C(C=C4)Cl
Outline: as §1

[4] = compound: C1=CC2=C(C=CC(=C2)/C=C\3/C(=O)NC(=NCC4=CC=CS4)S3)N=C1
Outline: as §1

[5] = compound: C1=CC2=NC=CN=C2C=C1/C=C/3\C(=O)NC(=O)S3
Outline: as §1

[6] = compound: C1=CC=C(C=C1)C2=NC(=C(N2)C3=CC=NC=C3)C4=CC(=C(C=C4)Cl)O
Outline: as §1

[7] = compound: C1=CC=C2C(=C1)C3=NNC4=CC=CC(=C43)C2=O
Outline: as §1

[8] = compound: C1CCN(C1)C(=O)NC2=CC=CC(=C2)NC3=NC=C(C(=N3)NCCC4=CN=CN4)Br
Outline: as §1

[9] = compound: C1CN(CCC1(CC2=CC=C(C=C2)Cl)N)C3=NC=NC4=C3C=CN4
Outline: as §1

IRAK-1-4 Inhibitor I = compound: C1COCCN1CCN2C3=CC=CC=C3N=C2NC(=O)C4=CC(=CC=C4)[N+](=O)[O-] [IRAK-1-4 Inhibitor I]
Outline: as §1

ibrutinib = compound: C=CC(=O)N1CCC[C@@H](n2nc(-c3ccc(Oc4ccccc4)cc3)c3c(N)ncnc32)C1 [ibrutinib]
Outline: as §1

[10] = compound: CC(=O)c1cnc2ccc(-c3cc(Cl)c(O)c(Cl)c3)nc2c1N[C@H]1CC[C@H](CN(C)C)CC1
Outline: as §1

ralimetinib = compound: CC(C)(C)Cn1c(N)nc2ccc(-c3[nH]c(C(C)(C)C)nc3-c3ccc(F)cc3)nc21 [ralimetinib]
Outline: as §1

[11] = compound: CC(C)(O)CC(=O)NCCn1ccc2ncnc(Nc3ccc(Oc4cccc(C(F)(F)F)c4)c(Cl)c3)c21
Outline: as §1

[12] = compound: CC(C)C1=C2N=C(C=C(N2N=C1)NCC3=CC=CC=C3)NCCCCCCN
Outline: as §1

[13] = compound: CC(C)C[C@@H](C=O)NC(=O)[C@H](CC(C)C)NC(=O)[C@H](CC(C)C)NC(=O)OCc1ccccc1
Outline: as §1

pinometostat = compound: CC(C)N(C[C@H]1O[C@@H](n2cnc3c(N)ncnc32)[C@H](O)[C@@H]1O)[C@H]1C[C@@H](CCc2nc3cc(C(C)(C)C)ccc3[nH]2)C1 [pinometostat]
Outline: as §1

[14] = compound: CC1=C(C(CC(=O)N1)C2=CC=C(C=C2)C(F)(F)F)C(=O)NC3=C(C=C4C(=C3)C=NN4)F
Outline: as §1

[15] = compound: CC1=C(C2=C(C=C1)C(=O)C3=CC=CC=C3N2CCCN)C
Outline: as §1

Measured: log2 fold change

POLDIP2 (UniProt Q9Y2S7)
inactive: erlotinib 0.025 | [1] 0.057 | [2] 0.041 | [3] 0.027 | [4] 0.12 | [5] 0.01 | [6] -0.033 | [7] 0 | [8] -0.053 | [9] 0.022 | IRAK-1-4 Inhibitor I 0.029 | ibrutinib -0.016 | [10] -0.078 | ralimetinib -0.045 | [11] -0.023 | [12] -0.009 | [13] -0.024 | pinometostat -0.027 | [14] -0.032 | [15] 0.032

PPM1A isoform 3 (UniProt P35813)
inactive: erlotinib -0.015 | [1] 0.038 | [2] 0.024 | [3] 0.03 | [4] 0.045 | [5] -0.031 | [6] -0.022 | [7] -0.005 | [8] 0.032 | [9] -0.021 | IRAK-1-4 Inhibitor I -0.003 | ibrutinib -0.039 | [10] -0.07 | ralimetinib -0.012 | [11] -0.132 | [12] -0.053 | [13] 0.049 | pinometostat -0.003 | [14] 0.009 | [15] -0.006

POLD2 (UniProt P49005)
inactive: erlotinib -0.026 | [1] 0.019 | [2] 0.013 | [3] 0.006 | [4] 0.056 | [5] 0.019 | [6] -0.048 | [7] -0.03 | [8] -0.005 | [9] -0.018 | IRAK-1-4 Inhibitor I 0.014 | ibrutinib -0.027 | [10] -0.062 | ralimetinib 0.087 | [11] -0.028 | [12] -0.054 | [13] 0.018 | pinometostat -0.017 | [14] 0.013 | [15] -0.007

POLR1D (UniProt P0DPB6)
inactive: erlotinib 0.05 | [1] 0.014 | [2] 0.077 | [3] -0.035 | [4] 0.015 | [5] -0.056 | [6] 0.065 | [7] -0.128 | [8] 0.043 | [9] -0.037 | IRAK-1-4 Inhibitor I -0.065 | ibrutinib -0.021 | [10] 0.089 | ralimetinib 0.052 | [11] -0.148 | [12] -0.109 | [13] 0.146 | pinometostat 0.058 | [14] -0.017 | [15] 0.033

PPIA (UniProt P62937)
inactive: erlotinib -0.036 | [1] 0.044 | [2] 0.064 | [3] -0.05 | [4] 0 | [5] 0.01 | [6] 0.026 | [7] 0.033 | [8] 0.009 | [9] 0.01 | IRAK-1-4 Inhibitor I 0.02 | ibrutinib -0.006 | [10] -0.01 | ralimetinib -0.001 | [11] -0.021 | [12] -0.017 | [13] -0.011 | pinometostat -0.057 | [14] -0.007 | [15] 0.012

PNP (UniProt P00491)
inactive: erlotinib -0.009 | [1] -0.008 | [2] 0.012 | [3] 0.003 | [4] -0.026 | [5] 0.027 | [6] -0.033 | [7] -0.021 | [8] 0.009 | [9] 0.055 | IRAK-1-4 Inhibitor I 0.03 | ibrutinib 0.038 | [10] -0.022 | ralimetinib -0.05 | [11] 0.003 | [12] 0.073 | [13] -0.019 | pinometostat -0.032 | [14] 0.003 | [15] 0.011

POMGNT1 isoform 2 (UniProt Q8WZA1)
inactive: erlotinib 0.077 | [1] -0.037 | [2] -0.042 | [3] 0.005 | [4] 0.08 | [5] 0.044 | [6] -0.159 | [7] 0.014 | [8] 0.13 | [9] -0.062 | IRAK-1-4 Inhibitor I -0.041 | ibrutinib -0.065 | [10] -0.072 | ralimetinib -0.216 | [11] 0.167 | [12] 0.081 | [13] 0.21 | pinometostat -0.085 | [14] -0.084 | [15] 0.057

Retrieved one by one from above, 2 records:
POLD2 (UniProt P49005)
inactive: erlotinib -0.026 | [1] 0.019 | [2] 0.013 | [3] 0.006 | [4] 0.056 | [5] 0.019 | [6] -0.048 | [7] -0.03 | [8] -0.005 | [9] -0.018 | IRAK-1-4 Inhibitor I 0.014 | ibrutinib -0.027 | [10] -0.062 | ralimetinib 0.087 | [11] -0.028 | [12] -0.054 | [13] 0.018 | pinometostat -0.017 | [14] 0.013 | [15] -0.007

PPM1A isoform 3 (UniProt P35813)
inactive: erlotinib -0.015 | [1] 0.038 | [2] 0.024 | [3] 0.03 | [4] 0.045 | [5] -0.031 | [6] -0.022 | [7] -0.005 | [8] 0.032 | [9] -0.021 | IRAK-1-4 Inhibitor I -0.003 | ibrutinib -0.039 | [10] -0.07 | ralimetinib -0.012 | [11] -0.132 | [12] -0.053 | [13] 0.049 | pinometostat -0.003 | [14] 0.009 | [15] -0.006

Next results follow.

POLR3F (UniProt Q9H1D9)
inactive: erlotinib 0.024 | [1] 0.005 | [2] 0.075 | [3] 0.067 | [4] 0.006 | [5] -0.025 | [6] -0.05 | [7] -0.041 | [8] -0.008 | [9] 0.026 | IRAK-1-4 Inhibitor I 0.045 | ibrutinib -0.024 | [10] -0.027 | ralimetinib -0.017 | [11] 0.022 | [12] -0.022 | [13] -0.04 | pinometostat -0.003 | [14] -0.013 | [15] -0.017

PPCS (UniProt Q9HAB8)
inactive: erlotinib 0.004 | [1] 0.048 | [2] 0.015 | [3] -0.015 | [4] 0.02 | [5] -0.01 | [6] 0.005 | [7] -0.006 | [8] -0.03 | [9] 0.052 | IRAK-1-4 Inhibitor I 0.029 | ibrutinib -0.007 | [10] -0.034 | ralimetinib -0.048 | [11] -0.058 | [12] 0.036 | [13] -0.021 | pinometostat -0.019 | [14] -0.031 | [15] 0.065

POTEF (UniProt A5A3E0)
inactive: erlotinib 0.008 | [1] -0.023 | [2] 0.039 | [3] 0.048 | [4] -0.004 | [5] 0.001 | [6] -0.043 | [7] -0.007 | [8] -0.023 | [9] 0.044 | IRAK-1-4 Inhibitor I 0.047 | ibrutinib 0.037 | [10] -0.006 | ralimetinib -0.023 | [11] 0.011 | [12] 0.064 | [13] 0.028 | pinometostat -0.007 | [14] 0 | [15] -0.023

PNO1 (UniProt Q9NRX1)
inactive: erlotinib 0.033 | [1] 0.025 | [2] -0.177 | [3] 0.071 | [4] -0.069 | [5] 0.044 | [6] -0.02 | [7] 0.059 | [8] 0.096 | [9] -0.377 | IRAK-1-4 Inhibitor I -0.125 | ibrutinib 0.002 | [10] 0.01 | ralimetinib 0.185 | [11] 0 | [12] -0.072 | [13] 0.147 | pinometostat 0.192 | [14] 0.045 | [15] -0.345

PLS1 (UniProt Q14651)
inactive: erlotinib 0.009 | [1] 0.105 | [2] 0.05 | [3] 0.004 | [4] 0.084 | [5] 0.027 | [6] -0.015 | [7] 0.003 | [8] -0.004 | [9] -0.015 | IRAK-1-4 Inhibitor I 0.028 | ibrutinib -0.027 | [10] -0.045 | ralimetinib -0.019 | [11] -0.03 | [12] -0.002 | [13] 0.009 | pinometostat 0.004 | [14] 0.001 | [15] 0.048

PPM1B (UniProt O75688)
inactive: erlotinib 0.025 | [1] 0.045 | [2] 0.064 | [3] 0.086 | [4] 0.022 | [5] -0.001 | [6] 0.017 | [7] 0.055 | [8] -0.004 | [9] -0.094 | IRAK-1-4 Inhibitor I 0.02 | ibrutinib -0.033 | [10] -0.005 | ralimetinib -0.022 | [11] -0.014 | [12] -0.004 | [13] -0.016 | pinometostat 0.003 | [14] -0.029 | [15] -0.021

POSTN (UniProt Q15063)
inactive: erlotinib -0.014 | [1] -0.101 | [2] 0 | [3] 0.053 | [4] 0.128 | [5] -0.023 | [6] -0.007 | [7] -0.028 | [8] -0.071 | [9] 0.05 | IRAK-1-4 Inhibitor I 0.044 | ibrutinib 0.101 | [10] 0.056 | ralimetinib -0.083 | [11] 0.148 | [12] 0.021 | [13] -0.026 | pinometostat -0.131 | [14] 0.017 | [15] -0.16

PLPBP (UniProt O94903)
inactive: erlotinib 0.113 | [1] 0.09 | [2] 0.066 | [3] -0.126 | [4] 0.036 | [5] -0.004 | [6] -0.249 | [7] -0.037 | [8] -0.113 | [9] 0.001 | IRAK-1-4 Inhibitor I -0.079 | ibrutinib -0.076 | [10] -0.099 | ralimetinib -0.011 | [11] -0.137 | [12] -0.144 | [13] 0.052 | pinometostat 0.005 | [14] -0.057 | [15] 0.03

POP4 (UniProt O95707)
inactive: erlotinib 0.001 | [1] 0.055 | [2] -0.075 | [3] 0.115 | [4] 0.051 | [5] -0.022 | [6] -0.004 | [7] -0.006 | [8] 0.014 | [9] -0.031 | IRAK-1-4 Inhibitor I -0.04 | ibrutinib 0.008 | [10] 0.016 | ralimetinib 0.063 | [11] 0.006 | [12] -0.033 | [13] 0.048 | pinometostat 0.085 | [14] -0.069 | [15] -0.106
